These are yes or no findings as the source states them, for the method shown. Binding can be weak; no strength is given. Tags and fused reporters may be left off the sequences shown. For some assays here: In cells and extracts the contact can be indirect.
B1: His-VP2 (protein, UniProt Q8B3M2 212-464)
chain: MDNPNPGPDGEGEVELEKDSNVVLTTQRDPSTSIPAPVSVKWSRWTSNDVVDDYATITSRWYQIAEFVWSKDDPFDKELARLILPRALLSSIEANSDAICDVPNTIPFKVHAYWRGDMEVRVQINSNKFQVGQLQATWYYSDHENLNISSKRSVYGFSQMDHALISASASNEAKLVIPYKHVYPFLPTRIVPDWTTGILDMGALNIRVIAPLRMSATGPTTCNVVVFIKLNNSEFTGTSSGKFYASQIRAKPE
B2: VP2-His (protein, UniProt Q8B3M2 212-464)
chain: B1 chain

Legend:
[1] = target: GST-snapin fusion protein (not stated (worker bees)); assay: pull-down; GST pull-down: purified GST-snapin on glutathione agarose beads (4°C, 3 h), then overnight at 4°C with 0.1 mg/ml His-VP2; western blot with anti-His antibody; GST as negative control; both purified
[2] = target: snapin-Flag (not stated (worker bees)); assay: co-IP; BHK cells co-transfected with pTT5-VP2-His and pTT5-snapin-Flag, 48 h; lysate precipitated with Flag-tagged antibody and Protein A/G Plus-Agarose at 4°C; western blot with anti-His and anti-Flag

Row | Binder | binding [1] | binding [2]
1 | B1 | binds | 
2 | B2 |  | binds

Source: paper PMC9945523
